Article PMC3219680 (2011)
Results are given in words; binding and its absence hold for the method and conditions named.

Molecular target: T1, Mouse Cerberus 1 homologue (mCer1) recombinant protein (mouse) (UniProt O55233)
T1 sequence: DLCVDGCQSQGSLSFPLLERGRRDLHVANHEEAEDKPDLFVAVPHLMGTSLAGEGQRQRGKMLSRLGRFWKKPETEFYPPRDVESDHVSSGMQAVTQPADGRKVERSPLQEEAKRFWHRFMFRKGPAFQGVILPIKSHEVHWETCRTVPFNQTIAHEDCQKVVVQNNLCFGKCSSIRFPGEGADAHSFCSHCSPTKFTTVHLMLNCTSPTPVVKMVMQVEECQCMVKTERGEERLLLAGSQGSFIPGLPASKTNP
Test: SPR; BIAcore 2000; mCer1 immobilised on a CM5 chip by amine group; hBMP2, hBMP4 or hGDNF (1 µg/ml) flowed over; 25°C; HBS-P buffer (10 mM HEPES, 150 mM NaCl, 0.005% Tween 20, pH 7.4); triplicate; both purified

binding: no binding (tested: 1 µg/ml)
B1: hGDNF (ligand, UniProt P39905 78-211)
chain: SPDKQMAVLPRRERNRQAAAANPENSRGKGRRGQRGKNRGCVLTAIHLNVTDLGLGYETKEELIFRYCSGSCDAAETTYDKILKNLSRNRRLVSDKVGQACCRPIAFDDDLSFLDDNLVYHILRKHSAKRCGCI
